Measured values: article PMC5680368

T1: human OSTF1 tagged at the N-terminus with a V5-epitope tag (human) (UniProt Q92882)
T1 sequence: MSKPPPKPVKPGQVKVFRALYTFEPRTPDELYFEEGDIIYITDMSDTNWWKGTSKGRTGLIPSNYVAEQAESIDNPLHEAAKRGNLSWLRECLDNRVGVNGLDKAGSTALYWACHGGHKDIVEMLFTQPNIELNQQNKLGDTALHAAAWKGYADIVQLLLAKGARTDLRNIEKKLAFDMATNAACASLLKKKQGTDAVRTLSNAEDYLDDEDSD


biological target: T1, human OSTF1 tagged at the N-terminus with a V5-epitope tag (human); assay: affinity purification with mass spectrometry; HEK293 cells transiently transfected in triplicate with empty vector or V5-OSTF1; lysed after 48 h in 50 mM Tris pH 7.5, 1% Triton-X100, 150 mM NaCl; automated IP with anti-V5 magnetic agarose; co-immunoprecipitating proteins identified by LC-MS/MS

Binder | binding
Myosin 1E (protein, UniProt Q12965 1-1108) MGSKGVYQYHWQSHNVKHSGVDDMVLLSKITENSIVENLKKRYMDDYIFTYIGSVLISVNPFKQMPYFGEKEIEMYQGAAQYENPPHIYALADNMYRNMIIDRENQCVIISGESGAGKTVAAKYIMSYISRVSGGGTKVQHVKDIILQSNPLLEAFGNAKTVRNNNSSRFGKYFEIQFSPGGEPDGGKISNFLLEKSRVVMRNPGERSFHIFYQLIEGASAEQKHSLGITSMDYYYYLSLSGSYKVDDIDDRREFQETLHAMNVIGIFAEEQTLVLQIVAGILHLGNISFKEVGNYAAVESEEFLAFPAYLLGINQDRLKEKLTSRQMDSKWGGKSESIHVTLNVEQACYTRDALAKALHARVFDFLVDSINKAMEKDHEEYNIGVLDIYGFEIFQKNGFEQFCINFVNEKLQQIFIELTLKAEQEEYVQEGIRWTPIEYFNNKIVCDLIENKVNPPGIMSILDDVCATMHAVGEGADQTLLQKLQMQIGSHEHFNSWNQGFIIHHYAGKVSYDMDGFCERNRDVLFMDLIELMQSSELPFIKSLFPENLQADKKGRPTTAGSKIKKQANDLVSTLMKCTPHYIRCIKPNETKKPRDWEESRVKHQVEYLGLKENIRVRRAGYAYRRIFQKFLQRYAILTKATWPSWQGEEKQGVLHLLQSVNMDSDQFQLGRSKVFIKAPESLFLLEEMRERKYDGYARVIQKSWRKFVARKKYVQMREEASDLLLNKKERRRNSINRNFIGDYIGMEEHPELQQFVGKREKIDFADTVTKYDRRFKGVKRDLLLTPKCLYLIGREKVKQGPDKGLVKEVLKRKIEIERILSVSLSTMQDDIFILHEQEYDSLLESVFKTEFLSLLAKRYEEKTQKQLPLKFSNTLELKLKKENWGPWSAGGSRQVQFHQGFGDLAVLKPSNKVLQVSIGPGLPKNSRPTRRNTTQNTGYSSGTQNANYPVRAAPPPPGYHQNGVIRNQYVPYPHAPGSQRSNQKSLYTSMARPPLPRQQSTSSDRVSQTPESLDFLKVPDQGAAGVRRQTTSRPPPAGGRPKPQPKPKPQVPQCKALYAYDAQDTDELSFNANDIIDIIKEDPSGWWTGRLRGKQGLFPNNYVTKI | binds
Adaptor-related protein complex 3, delta-1 subuint (protein, UniProt O14617 1-1153) MALKMVKGSIDRMFDKNLQDLVRGIRNHKEDEAKYISQCIDEIKQELKQDNIAVKANAVCKLTYLQMLGYDISWAAFNIIEVMSASKFTFKRIGYLAASQSFHEGTDVIMLTTNQIRKDLSSPSQYDTGVALTGLSCFVTPDLARDLANDIMTLMSHTKPYIRKKAVLIMYKVFLKYPESLRPAFPRLKEKLEDPDPGVQSAAVNVICELARRNPKNYLSLAPLFFKLMTSSTNNWVLIKIIKLFGALTPLEPRLGKKLIEPLTNLIHSTSAMSLLYECVNTVIAVLISLSSGMPNHSASIQLCVQKLRILIEDSDQNLKYLGLLAMSKILKTHPKSVQSHKDLILQCLDDKDESIRLRALDLLYGMVSKKNLMEIVKKLMTHVDKAEGTTYRDELLTKIIDICSQSNYQYITNFEWYISILVELTRLEGTRHGHLIAAQMLDVAIRVKAIRKFAVSQMSALLDSAHLLASSTQRNGICEVLYAAAWICGEFSEHLQEPHHTLEAMLRPRVTTLPGHIQAVYVQNVVKLYASILQQKEQAGEAEGAQAVTQLMVDRLPQFVQSADLEVQERASCILQLVKHIQKLQAKDVPVAEEVSALFAGELNPVAPKAQKKVPVPEGLDLDAWINEPLSDSESEDERPRAVFHEEEQRRPKHRPSEADEEELARRREARKQEQANNPFYIKSSPSPQKRYQDTPGVEHIPVVQIDLSVPLKVPGLPMSDQYVKLEEERRHRQKLEKDKRRKKRKEKEKKGKRRHSSLPTESDEDIAPAQQVDIVTEEMPENALPSDEDDKDPNDPYRALDIDLDKPLADSEKLPIQKHRNTETSKSPEKDVPMVEKKSKKPKKKEKKHKEKERDKEKKKEKEKKKSPKPKKKKHRKEKEERTKGKKKSKKQPPGSEEAAGEPVQNGAPEEEQLPPESSYSLLAENSYVKMTCDIRGSLQEDSQVTVAIVLENRSSSILKGMELSVLDSLNARMARPQGSSVHDGVPVPFQLPPGVSNEAQYVFTIQSIVMAQKLKGTLSFIAKNDEGATHEKLDFRLHFSCSSYLITTPCYSDAFAKLLESGDLSMSSIKVDGIRMSFQNLLAKICFHHHFSVVERVDSCASMYSRSIQGHHVCLLVKKGENSVSVDGKCSDSTLLSNLLEEMKATLAKC | binds
Factor interacting with PAPOLA and CPSF1 (protein, UniProt Q6UN15 1-594) MSAGEVERLVSELSGGTGGDEEEEWLYGGPWDVHVHSDLAKDLDENEVERPEEENASANPPSGIEDETAENGVPKPKVTETEDDSDSDSDDDEDDVHVTIGDIKTGAPQYGSYGTAPVNLNIKTGGRVYGTTGTKVKGVDLDAPGSINGVPLLEVDLDSFEDKPWRKPGADLSDYFNYGFNEDTWKAYCEKQKRIRMGLEVIPVTSTTNKITAEDCTMEVTPGAEIQDGRFNLFKVQQGRTGNSEKETALPSTKAEFTSPPSLFKTGLPPSRNSTSSQSQTSTASRKANSSVGKWQDRYGRAESPDLRRLPGAIDVIGQTITISRVEGRRRANENSNIQVLSERSATEVDNNFSKPPPFFPPGAPPTHLPPPPFLPPPPTVSTAPPLIPPPGFPPPPGAPPPSLIPTIESGHSSGYDSRSARAFPYGNVAFPHLPGSAPSWPSLVDTSKQWDYYARREKDRDRERDRDRERDRDRDRERERTRERERERDHSPTPSVFNSDEERYRYREYAERGYERHRASREKEERHRERRHREKEETRHKSSRSNSRRRHESEEGDSHRRHKHKKSKRSKEGKEAGSEPAPEQESTEATPAE | binds
FTSJ3 (protein, UniProt Q8IY81 1-847) MGKKGKVGKSRRDKFYHLAKETGYRSRSAFKLIQLNRRFQFLQKARALLDLCAAPGGWLQVAAKFMPVSSLIVGVDLVPIKPLPNVVTLQQDITTERCRQALRKELKTWKVDVVLNDGAPNVGASWVHDAYSQAHLTLMALRLACDFLARGGSFITKVFRSRDYQPLLWIFQQLFRRVQATKPQASRHESAEIFVVCQGFLAPDKVDSKFFDPKFAFKEVEVQAKTVTELVTKKKPKAEGYAEGDLTLYHRTSVTDFLRAANPVDFLSKASEIMVDDEELAQHPATTEDIRVCCQDIRVLGRKELRSLLNWRTKLRRYVAKKLKEQAKALDISLSSGEEDEGDEEDSTAGTTKQPSKEEEEEEEEEQLNQTLAEMKAQEVAELKRKKKKLLREQRKQRERVELKMDLPGVSIADEGETGMFSLSTIRGHQLLEEVTQGDMSAADTFLSDLPRDDIYVSDVEDDGDDTSLDSDLDPEELAGVRGHQGLRDQKRMRLTEVQDDKEEEEEENPLLVPLEEKAVLQEEQANLWFSKGSFAGIEDDADEALEISQAQLLFENRRKGRQQQQKQQLPQTPPSCLKTEIMSPLYQDEAPKGTEASSGTEAATGLEGEEKDGISDSDSSTSSEEEESWEPLRGKKRSRGPKSDDDGFEIVPIEDPAKHRILDPEGLALGAVIASSKKAKRDLIDNSFNRYTFNEDEGELPEWFVQEEKQHRIRQLPVGKKEVEHYRKRWREINARPIKKVAEAKARKKRRMLKRLEQTRKKAEAVVNTVDISEREKVAQLRSLYKKAGLGKEKRHVTYVVAKKGVGRKVRRPAGVRGHFKVVDSRMKKDQRAQQRKEQKKKHKRK | binds

Next, values leading:

binding | Binder
binds | RNA binding protein with serine rich domain 1 (protein, UniProt Q15287 1-305) MDLSGVKKKSLLGVKENNKKSSTRAPSPTKRKDRSDEKSKDRSKDKGATKESSEKDRGRDKTRKRRSASSGSSSTRSRSSSTSSSGSSTSTGSSSGSSSSSASSRSGSSSTSRSSSSSSSSGSPSPSRRRHDNRRRSRSKSKPPKRDEKERKRRSPSPKPTKVHIGRLTRNVTKDHIMEIFSTYGKIKMIDMPVERMHPHLSKGYAYVEFENPDEAEKALKHMDGGQIDGQEITATAVLAPWPRPPPRRFSPPRRMLPPPPMWRRSPPRMRRRSRSPRRRSPVRRRSRSPGRRRHRSRSSSNSSR
binds | UPF3B, regulator of nonsense mediated mRNA decay (protein, UniProt Q9BZI7 1-483) MKEEKEHRPKEKRVTLLTPAGATGSGGGTSGDSSKGEDKQDRNKEKKEALSKVVIRRLPPTLTKEQLQEHLQPMPEHDYFEFFSNDTSLYPHMYARAYINFKNQEDIILFRDRFDGYVFLDNKGQEYPAIVEFAPFQKAAKKKTKKRDTKVGTIDDDPEYRKFLESYATDNEKMTSTPETLLEEIEAKNRELIAKKTTPLLSFLKNKQRMREEKREERRRREIERKRQREEERRKWKEEEKRKRKDIEKLKKIDRIPERDKLKDEPKIKVHRFLLQAVNQKNLLKKPEKGDEKELDKREKAKKLDKENLSDERASGQSCTLPKRSDSELKDEKPKRPEDESGRDYREREREYERDQERILRERERLKRQEEERRRQKERYEKEKTFKRKEEEMKKEKDTLRDKGKKAESTESIGSSEKTEKKEEVVKRDRIRNKDRPAMQLYQPGARSRNRLCPPDDSTKSGDSAAERKQESGISHRKEGGEE
binds | SLU7 homolog (protein, UniProt O95391 1-586) MSATVVDAVNAAPLSGSKEMSLEEPKKMTREDWRKKKELEEQRKLGNAPAEVDEEGKDINPHIPQYISSVPWYIDPSKRPTLKHQRPQPEKQKQFSSSGEWYKRGVKENSIITKYRKGACENCGAMTHKKKDCFERPRRVGAKFTGTNIAPDEHVQPQLMFDYDGKRDRWNGYNPEEHMKIVEEYAKVDLAKRTLKAQKLQEELASGKLVEQANSPKHQWGEEEPNSQMEKDHNSEDEDEDKYADDIDMPGQNFDSKRRITVRNLRIREDIAKYLRNLDPNSAYYDPKTRAMRENPYANAGKNPDEVSYAGDNFVRYTGDTISMAQTQLFAWEAYDKGSEVHLQADPTKLELLYKSFKVKKEDFKEQQKESILEKYGGQEHLDAPPAELLLAQTEDYVEYSRHGTVIKGQERAVACSKYEEDVKIHNHTHIWGSYWKEGRWGYKCCHSFFKYSYCTGEAGKEIVNSEECIINEITGEESVKKPQTLMELHQEKLKEEKKKKKKKKKKHRKSSSDSDDEEKKHEKLKKALNAEEARLLHVKETMQIDERKRPYNSMYETREPTEEEMEAYRMKRQRPDDPMASFLGQ
binds | PAK1 interacting protein 1 (protein, UniProt Q9NWT1 1-392) MELVAGCYEQVLFGFAVHPEPEACGDHEQWTLVADFTHHAHTASLSAVAVNSRFVVTGSKDETIHIYDMKKKIEHGALVHHSGTITCLKFYGNRHLISGAEDGLICIWDAKKWECLKSIKAHKGQVTFLSIHPSGKLALSVGTDKTLRTWNLVEGRSAFIKNIKQNAHIVEWSPRGEQYVVIIQNKIDIYQLDTASISGTITNEKRISSVKFLSESVLAVAGDEEVIRFFDCDSLVCLCEFKAHENRVKDMFSFEIPEHHVIVSASSDGFIKMWKLKQDKKVPPSLLCEINTNARLTCLGVWLDKVADMKESLPPAAEPSPVSKEQSKIGKKEPGDTVHKEEKRSKPNTKKRGLTGDSKKATKESGLISTKKRKMVEMLEKKRKKKKIKTMQ

These are yes or no findings as the source states them, for the method shown. Binding seen in cells or lysates may run through a third protein. These calls come from enrichment with a bait or labelling near it, and not all partners need be listed. Where a sequence is shown, tags or fusion partners need not be part of it.
